The assay deals with Kap114pΔ(848-875) (S. cerevisiae) (UniProt P53067). In words: ITC; MicroCal iTC200, 25 °C, 20 mM HEPES pH 7.4, 150 mM NaCl; 25 or 50 μM wild type or mutant Kap114p in the cell, 250 or 500 μM wild-type or mutant yTBP^C in the syringe; triplicate; both purified.

The chains behind the UniProt entries cited, without tags or fusion partners. Where a name states a change or a piece, a line headed by the entry shows the natural chain unless it says otherwise.
UniProt P53067: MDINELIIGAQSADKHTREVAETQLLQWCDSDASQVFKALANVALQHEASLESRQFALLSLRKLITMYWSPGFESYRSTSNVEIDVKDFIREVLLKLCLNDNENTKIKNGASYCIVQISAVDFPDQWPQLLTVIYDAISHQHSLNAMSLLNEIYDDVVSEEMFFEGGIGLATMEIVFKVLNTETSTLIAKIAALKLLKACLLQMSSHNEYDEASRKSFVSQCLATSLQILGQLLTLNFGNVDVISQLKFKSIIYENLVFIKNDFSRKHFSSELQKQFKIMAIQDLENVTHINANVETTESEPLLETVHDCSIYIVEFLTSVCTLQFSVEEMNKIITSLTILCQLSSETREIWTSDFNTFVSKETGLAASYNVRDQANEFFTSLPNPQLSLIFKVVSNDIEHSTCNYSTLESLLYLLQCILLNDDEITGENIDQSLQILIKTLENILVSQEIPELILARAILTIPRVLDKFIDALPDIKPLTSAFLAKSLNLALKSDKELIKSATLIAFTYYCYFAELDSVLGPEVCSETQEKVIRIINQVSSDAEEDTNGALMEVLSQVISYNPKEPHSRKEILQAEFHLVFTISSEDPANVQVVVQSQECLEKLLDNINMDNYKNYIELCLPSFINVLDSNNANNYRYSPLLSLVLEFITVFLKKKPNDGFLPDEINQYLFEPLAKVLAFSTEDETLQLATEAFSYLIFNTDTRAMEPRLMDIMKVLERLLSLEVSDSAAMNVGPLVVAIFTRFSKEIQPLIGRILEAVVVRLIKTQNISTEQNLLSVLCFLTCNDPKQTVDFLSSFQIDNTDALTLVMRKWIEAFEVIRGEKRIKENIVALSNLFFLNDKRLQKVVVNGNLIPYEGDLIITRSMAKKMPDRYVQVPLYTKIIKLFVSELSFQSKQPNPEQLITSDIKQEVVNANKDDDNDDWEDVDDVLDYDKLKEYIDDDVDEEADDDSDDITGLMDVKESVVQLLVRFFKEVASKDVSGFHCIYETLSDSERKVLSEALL

These are yes or no findings as the source states them, for the method shown. A result given as binding can be weak or reduced; the word gives no strength.

B1: core domain of yeast TATA-box binding protein (yTBP^C), wild type (domain or fragment, S. cerevisiae, UniProt P13393 61-240, looked up)
chain: SGIVPTLQNIVATVTLGCRLDLKTVALHARNAEYNPKRFAAVIMRIREPKTTALIFASGKMVVTGAKSEDDSKLASRKYARIIQKIGFAAKFTDFKIQNIVGSCDVKFPIRLEGLAFSHGTFSSYEPELFPGLIYRMVKPKIVLLIFVSGKIVLTGAKQREEIYQAFEAIYPVLSEFRKM
notes: 61-240; His tag removed with PreScission protease; also called yTBP core domain; source: E. coli Rosetta, purified (Ni-NTA, HiTrap SP, Superdex 75); not shown: His6, N-terminal, cleaved
B1: the binding result is “binds”.

Values taken from paper PMC10491584, “Structural convergence endows nuclear transport receptor Kap114p with a transcriptional repressor function toward TATA-binding protein” (Nature Communications, 2023).
